This passage reports EC50 results from patent US20250145596A1, “HETEROCYCLIC GLP-1 AGONISTS” (Gasherbrum Bio, Inc., priority 2022, published 2025).

The chains behind the UniProt entries cited, without tags or fusion partners. Residues count along the entry.
UniProt P43220, 24-463 limits assumed: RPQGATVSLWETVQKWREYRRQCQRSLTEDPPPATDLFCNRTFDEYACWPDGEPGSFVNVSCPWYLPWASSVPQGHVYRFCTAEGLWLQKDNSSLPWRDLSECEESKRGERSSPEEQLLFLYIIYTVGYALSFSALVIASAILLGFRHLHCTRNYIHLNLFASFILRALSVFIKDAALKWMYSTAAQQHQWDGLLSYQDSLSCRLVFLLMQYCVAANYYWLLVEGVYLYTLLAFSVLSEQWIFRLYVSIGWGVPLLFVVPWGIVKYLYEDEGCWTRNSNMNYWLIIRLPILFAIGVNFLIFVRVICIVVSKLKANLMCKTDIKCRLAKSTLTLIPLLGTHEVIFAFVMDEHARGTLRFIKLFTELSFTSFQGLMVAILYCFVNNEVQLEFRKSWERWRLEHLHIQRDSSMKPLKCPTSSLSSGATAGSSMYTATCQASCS

The structures given here were assigned with low confidence; some may be wrong. Bounds are passed on as bounds.

The target of the assay is GLP-1 Receptor (Homo sapiens, UniProt P43220). Kind of assay: GLP-1R agonist cAMP stimulation assay. To be noted: read-out: Activity (EC50), GLP-1R agonist cAMP stimulation assay; HEK293/CRE-Luc cell line stably expressing the GLP-1 Receptor; 30 min at 37° C.; cAMP dynamic 2 Kit. As to the method: Activation of GLP-1 receptor is known to stimulate cyclic AMP (cAMP) production in cells which indicates primary coupling to the Gas subunit of the G protein heterotrimeric complex.
To optimize functional activity directed toward Gas coupling, a HEK293/CRE-Luc cell line developed by HDB stably expressing the GLP-1 Receptor was used. 200× concentration of compound working solutions were prepared (Agilent Technologies Bravo) with ½ log serial dilution in 384-well Echo LDV plate (Labcyte, Cat #LP-0200). 50 nL/well 200× concentration of compound working solutions were moved to 384-well white low volume plate (Greiner, Cat #784075) using Labcyte ECHO550. 1×10^5 cells/mL HEK293/GLPlR/CRE-LUC (HD Biosciences) cell suspensions prepared with assay buffer [DPBS containing 0.5 mM IBMX (Sigma, Cat #15879) and 0.1% BSA (GENVIEW, Cat #FA016-100g)], 10 μL cell suspensions were added to each well of previous generated assay plate which already contains 50 nL compound at 200× concentration using ThermoFisher Multidrop Combi (1000 cells/well). Seal the plate and incubate at 37° C. with 5% CO2 for 30 min.
After incubation the cAMP assay signal was generated using cAMP dynamic 2 Kit (Cisbio). 5 μL cAMP-d2 working solution was added to each well, followed with 5 μL Anti-cAMP antibody-cryptate working solution added to each well using ThermoFisher Multidrop Combi. Incubate at room temperature for 1 hour protected from light. Read the fluorescence at 665 and 615 nm with Reader PerkinElmer EnVision.
% Activity=100%×(mean RLU of test sample mean RLU of vehicle control)/(mean RLU of MAX control−mean RLU of vehicle control))

`CC1(c2ccc(Cl)cc2F)Oc2cccc(C3=CCN(Cc4ncc(-c5nnc(C(F)(F)F)[nH]5)cc4CC4(C#N)CC4)CC3)c2O1` (stereo not shown) [Example 66, 1-((2-((4-(2-(4-chloro-2-fluorophenyl)-2-methylbenzo[d][1,3]dioxol-4-yl)-3,6-dihydropyridin-1(2H)-yl)methyl)-5-(5-(trifluoromethyl)-4H-1,2,4-triazol-3-yl)pyridin-3-yl)methyl)cyclopropane-1-carbonitrile]: the EC50 (usually the concentration needed to bring the measured effect to its halfway point) was less than 1 nM.

As to `N#CC1(Cc2cc(-c3nnc(C(F)(F)F)[nH]3)cnc2CN2CCC(c3ccc(F)c(OCc4ccc(Cl)cc4F)c3)CC2)CC1`, the EC50 was less than 1 nM.

In the case of `N#CC1(Cc2cc(-c3nnc(C(F)(F)F)[nH]3)cnc2CN2CCN(c3ccc(F)c(OCc4ccc(Cl)cc4F)n3)CC2)CC1`, the EC50 is less than 1 nM.

As for `C[C@H]1CN(c2cccc(OCc3ccc(Cl)cc3F)n2)CCN1Cc1ncc(-c2nnc(C(F)(F)F)[nH]2)cc1CC1(C#N)CC1`, the EC50 lay within 1 to 100 nM.
